According to paper PMC5490336:
These are yes or no findings as the source states them, for the method shown. Where a sequence is shown, tags or fusion partners need not be part of it.

Target: full length p53 (human), P04637
Test: ELISA; p53 absorbed onto the solid phase; GST-tagged proteins titrated in solution phase; detected with GST antibodies, peroxidase conjugated secondary antibodies, chemiluminescence (RLU); both purified
Details: remark: other sources report otherwise

binding: no binding
B1: GST-tagged AGR2, O95994 21-175 (protein)
chain: RDTTVKPGAKKDTKDSRPKLPQTLSRGWGDQLIWTQTYEEALYKSKTSNKPLMIIHHLDECPHSQALKKVFAENKEIQKLAEQFVLLNLVYETTDKHLSPDGQYVPRIMFVDPSLTVRADITGRYSNRLYAYEPADTALLLDNMKKALKLLKTEL
